# Experimental data published in PubChem BioAssay AID624291 (National Center for Advancing Translational Sciences (NCATS), 2012).
# The campaign covered roughly 350,000 compounds. About 220 (0.063%) were called active. This list was built around the results that the source calls inconclusive (neither active nor inactive); the mix of calls is not that of the screen. The call rests on the fitted dose curve; in most records, active means well fitted activation curve with a large enough effect; inconclusive means small, poorly fitted or top-dose-only effect; inactive means no such curve, though single readings can be large or run the other way. A potency beside an inconclusive call is a rough fit, not a confirmed value.
# Test: qHTS for Activators of Integrin-Mediated Alleviation for Muscular Dystrophy; further: nearly all actives have a fitted effect of over 60% in size;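 on activation: 100% = response of the positive control SU9516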
# Conditions: alpha7betagal myoblasts, beta-gal FDG fluorescence, 48 h; activation: at 38.3 µM (top of the series)
# Method in brief: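 alpha7betagal+/- myoblasts (passage 13, 250/well) treated 48 h at 37C with compounds at 1:260 dilution of DMSO stock. Lysed, then beta-galactosidase activity read as FDG fluorescence (ex 480/em 540) after 30 min, with pre-read for autofluorescence.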
# Potency means the concentration at half of the fitted maximal effect.
SMILES,Potency,activation
Cc1ccc(N/N=C(/Sc2nnnn2-c2ccccc2)C(=O)c2ccccc2)cc1,inactive,
Cc1ccc(NC(=O)COC(=O)c2c(-c3ccccc3)noc2C)cc1,"inconclusive: 12.6 µM [activator, partial curve, poor fit]",
Cc1ccc(C(NC(=O)CN2C(=O)NC3(CCCC3)C2=O)c2ccccc2)cc1 (configuration not stated),"inconclusive: 1 µM [activator, full curve, poor fit]",
CCCNCc1cc(Br)ccc1OCC(=O)NCCc1ccccc1,,inconclusive: -22.9% [activator]
CC1=C(C(N)=O)C(c2cccnc2)n2nc(SCc3ccccc3Cl)nc2N1 (configuration not stated),inactive,
O=C(NCCOc1ccccc1Cl)C(=O)c1c[nH]c2ccccc12,inactive,
O=C(O)c1ccccc1CSc1nc2ccccc2n1Cc1ccccc1C(=O)O,"inconclusive: 15.8 µM [activator, single point]",
CC(=O)Nc1sc2c(c1C(c1cccc(Cl)c1)N1CCN(CCO)CC1)CCCC2 (configuration not stated),inactive,
Cc1nc(NS(=O)(=O)c2ccccc2)sc1NC(=O)Nc1ccccc1,"inconclusive: 2.82 µM [activator, single point]",
COc1ccccc1C(=O)Nc1ccnn1C1CCN(Cc2ccccc2OCCO)CC1,"inconclusive: 5.01 µM [activator, single point]",
COc1cc(NC(=O)c2nn(C)c3c2CS(=O)(=O)c2ccccc2-3)cc(OC)c1,"inconclusive: 3.16 µM [activator, single point]",
COc1nc(Nc2nc3ccccc3c(=O)[nH]2)nc2ccc(C)cc12,inactive,
NC(=O)C1CCN(CC(O)CSc2ccc(F)cc2)CC1 (configuration not stated),"inconclusive: 14.1 µM [activator, partial curve, poor fit]",
CCN(CC)CCNC(=O)CN1C(=O)COc2ccc(S(=O)(=O)N3CCOCC3)cc21,"inconclusive: 2.82 µM [activator, single point]",
CCCCOC(=O)c1ccc(NC(=S)N2CCN(c3ncc4c(=O)c(C(=O)O)cn(CC)c4n3)CC2)cc1,"inconclusive: 28.2 µM [activator, single point]",
Cc1ccc(N2CC(C(=O)N3CCOCC3)CC2=O)cc1Cl (configuration not stated),"inconclusive: 2.24 µM [activator, partial curve, poor fit]",
O=C(Cn1cc(Br)ccc1=O)Nc1ccc2c(c1)OCO2,"inconclusive: 2.51 µM [activator, partial curve, poor fit]",
O=C(CN(Cc1ccccc1Cl)C(=O)c1csnn1)NC1CCCC1,"inconclusive: 28.2 µM [activator, single point]",
O=C(O)Cc1ccc(NC(=O)c2cnccn2)cc1,inactive,
Cc1cc(C)cc(N(CCC#N)C(=O)CSc2nc3ccccc3c(=O)[nH]2)c1,"inconclusive: 2.51 µM [activator, full curve, poor fit]",
N#CCCN(NC1=NS(=O)(=O)c2ccccc21)C(=O)c1ccccc1Br,"inconclusive: 3.55 µM [activator, single point]",
CCC(C)c1ccc(NS(=O)(=O)c2c(C)[nH]c(=O)[nH]c2=O)cc1 (configuration not stated),"inconclusive: 3.55 µM [activator, partial curve, poor fit]",
CN(Cc1cnccn1)Cc1cn(Cc2ccccc2)nc1-c1ccc2c(c1)OCO2,inactive,

SMILES,Potency,activation
COc1ccc(CCn2c(-c3ccc(Cl)cc3)n[nH]c2=S)cc1OC,"inconclusive: 28.2 µM [activator, single point]",
Cn1cnnc1SCC(=O)Nc1ccc(Cl)cn1,"inconclusive: 1.12 µM [activator, partial curve, poor fit]",
Cc1ccc(NC(=O)C2CCN(S(=O)(=O)c3ccc(N4CCCC4=O)cc3)CC2)cc1Cl,inactive,
CCOC(=O)CN1C(=O)N[C@@H](c2ccccc2)C(C(C)=O)=C1C,"inconclusive: 5.01 µM [activator, single point]",
CC1CCCC2(C1)NC(=S)N(c1ccccc1)N2 (configuration not stated),inactive,
Cc1ccc(OCCCCCN2CCOCC2)c(Cl)c1,inactive,
N=C1SCC(=O)N1c1ccccc1Cl,"inconclusive: 3.55 µM [activator, full curve, poor fit]",
Cc1ccc(-n2ncc(Cl)c2C(=O)NCc2ccccc2)cc1,inactive,
CCN(CC)S(=O)(=O)c1ccc(NC(=O)c2cnc(C)cn2)cc1,"inconclusive: 2.82 µM [activator, single point]",
CN(c1ccccc1)c1ccc(/C=N/N2CCOCC2)cc1,inactive,
O=S(=O)(c1ccc(N2CCN(Cc3ccccc3)CC2)nc1)N1CCCC1,"inconclusive: 3.16 µM [activator, single point]",
COc1ccc2nc(COC(=O)c3cccs3)c(C(C)=O)[n+]([O-])c2c1,inactive,
Cc1cn(C2OC(CC(=O)Oc3ccccc3)C(O)C2O)c(=O)[nH]c1=O (configuration not stated),"inconclusive: 12.6 µM [activator, partial curve, poor fit]",
COc1ccc(C[C@H]2CN3C(=NC[C@H]3Cc3ccccc3)N2CCNC(=O)c2ccc(C)c(Br)c2)cc1,inactive,
CCCCNC(=S)N1CCC(Cc2ccccc2)CC1,"inconclusive: 5.01 µM [activator, single point]",
O=[N+]([O-])c1ccc2c(c1)C(=Nc1ccccc1)c1ccccc1-2,"inconclusive: 3.16 µM [activator, full curve, poor fit]",
Cc1c(Cl)cccc1N=C1SCCN1C(=O)CN1C(=O)NC2(CCCC2)C1=O,"inconclusive: 5.01 µM [activator, single point]",
CC1CCN(CCCNC(=O)C2CCN(S(=O)(=O)N3CCC4(CC3)OCCO4)CC2)CC1,"inconclusive: 5.01 µM [activator, single point]",
NC(=O)Cn1cc(/C=N\NS(=O)(=O)c2ccc(Cl)cc2)c2ccccc21,"inconclusive: 20 µM [activator, partial curve, poor fit]",
COc1cc(NC(=S)NC2CC(C)(C)NC(C)(C)C2)c(OC)cc1Cl,"inconclusive: 1.78 µM [activator, partial curve, poor fit]",
Cc1ccc(NC(=O)C2CC(=O)N/C(=N/NC(=O)c3ccc(C)cc3)S2)cc1 (configuration not stated),inactive,
O=C(NCCCCCCNC(=O)OCc1ccccc1)OCc1ccccc1,inactive,
COc1ccc(Cl)cc1N(C(=O)c1ccco1)C(C(=O)NC1CCCC1)c1ccncc1 (configuration not stated),"inconclusive: 5.01 µM [activator, single point]",

SMILES,Potency,activation
COc1ccc2c(CC(=O)OCC(=O)Nc3ccc(S(N)(=O)=O)cc3)coc2c1,"inconclusive: 5.01 µM [activator, single point]",
O=C(O)CCN1C(=O)/C(=C/c2ccc(-c3nc4ccccc4s3)o2)SC1=S,inactive,
Cc1ccc(C(=O)NC(=S)Nc2ccccc2C(F)(F)F)cc1C,inactive,
CC1(C)Cc2c(C#N)c(NCCO)nc(-c3ccco3)c2CO1,inactive,
Cc1cccc(CN2C(=O)/C(=C\c3ccc(C(=O)NCCN4CCOCC4)cc3)Sc3ccccc32)c1,"inconclusive: 3.55 µM [activator, single point]",
COC(=O)c1cc(S(=O)(=O)N(C)c2ccc(C)c(C)c2)c[nH]1,"inconclusive: 8.91 µM [activator, partial curve, poor fit]",
CCC(=O)NCCc1nc2cc(NC(=O)c3ccccc3OC)ccc2n1C,"inconclusive: 4.47 µM [activator, single point]",
CN(CC(=O)NCc1ccc(Cl)cc1)S(=O)(=O)c1cccs1,"inconclusive: 2.51 µM [activator, partial curve, poor fit]",
Cc1ccc(S(=O)(=O)N2CCOCC2)cc1NC(=O)CSc1nnc(N)s1,"inconclusive: 3.55 µM [activator, single point]",
N#Cc1cccc(C(=O)Nc2ccc(S(=O)(=O)Nc3nccs3)cc2)c1,"inconclusive: 2.51 µM [activator, partial curve, poor fit]",
O=C1CSC(c2ccc([N+](=O)[O-])cc2)N1c1ccccc1F (configuration not stated),"inconclusive: 5.01 µM [activator, single point]",
CCOc1ccc2oc(=O)cc(CN3CCOCC3)c2c1,"inconclusive: 8.91 µM [activator, partial curve, poor fit]",
Cn1c(SCC(=O)Nc2cccc(S(=O)(=O)NC3=NCCCCC3)c2)nnc1-c1ccncc1,"inconclusive: 5.01 µM [activator, single point]",
CC(C)(C)c1ccc(C(=O)NC(=S)Nn2cnnc2)cc1,inactive,
COc1ccccc1CCNC(=O)C1CCC(=O)N(Cc2ccccc2OC)C1 (configuration not stated),inactive,
O=C1CC(Cc2ccc(Cl)cc2)C(=O)N1c1cc(Cl)ccn1 (configuration not stated),"inconclusive: 11.2 µM [activator, single point]",
O=C(O)c1ccc(Nc2ccc(Cl)c(Cl)c2)c([N+](=O)[O-])c1,"inconclusive: 0.501 µM [activator, full curve, poor fit]",
COc1ccc(CN2C(=O)C(CC(=O)NCc3ccco3)CC(C(=O)N3CCOCC3)=C2C)cc1 (configuration not stated),"inconclusive: 3.16 µM [activator, single point]",
COc1cc(/C=C/C(=O)NCc2nc3ccccc3[nH]2)cc(OC)c1OC,,inconclusive: 12.8% [activator]
CCN(CC(=O)Nc1ccc(NC(C)=O)cc1)C(=O)c1cc2ccccc2oc1=O,"inconclusive: 3.16 µM [activator, single point]",
O=C(NCCNC(=O)c1ccccc1Cl)c1ccco1,"inconclusive: 15.8 µM [activator, partial curve, poor fit]",

# Some of the entries so far, with bars between the fields:
SMILES | Potency | activation
Cc1cccc(CN2C(=O)/C(=C\c3ccc(C(=O)NCCN4CCOCC4)cc3)Sc3ccccc32)c1 | inconclusive: 3.55 µM [activator, single point] | 
COC(=O)c1cc(S(=O)(=O)N(C)c2ccc(C)c(C)c2)c[nH]1 | inconclusive: 8.91 µM [activator, partial curve, poor fit] | 
CCC(=O)NCCc1nc2cc(NC(=O)c3ccccc3OC)ccc2n1C | inconclusive: 4.47 µM [activator, single point] | 
CN(CC(=O)NCc1ccc(Cl)cc1)S(=O)(=O)c1cccs1 | inconclusive: 2.51 µM [activator, partial curve, poor fit] | 
